# Data reported in the supplement of paper PMC3334620.
# Over roughly 33,000 sequences, “E-score (-0.5 to 0.5)” has its median near -0.016; the highest 2% begin near 0.3. The list shows a part of the results.
# Biological target: T1, Yer184c (UniProt P39961)
# T1 sequence: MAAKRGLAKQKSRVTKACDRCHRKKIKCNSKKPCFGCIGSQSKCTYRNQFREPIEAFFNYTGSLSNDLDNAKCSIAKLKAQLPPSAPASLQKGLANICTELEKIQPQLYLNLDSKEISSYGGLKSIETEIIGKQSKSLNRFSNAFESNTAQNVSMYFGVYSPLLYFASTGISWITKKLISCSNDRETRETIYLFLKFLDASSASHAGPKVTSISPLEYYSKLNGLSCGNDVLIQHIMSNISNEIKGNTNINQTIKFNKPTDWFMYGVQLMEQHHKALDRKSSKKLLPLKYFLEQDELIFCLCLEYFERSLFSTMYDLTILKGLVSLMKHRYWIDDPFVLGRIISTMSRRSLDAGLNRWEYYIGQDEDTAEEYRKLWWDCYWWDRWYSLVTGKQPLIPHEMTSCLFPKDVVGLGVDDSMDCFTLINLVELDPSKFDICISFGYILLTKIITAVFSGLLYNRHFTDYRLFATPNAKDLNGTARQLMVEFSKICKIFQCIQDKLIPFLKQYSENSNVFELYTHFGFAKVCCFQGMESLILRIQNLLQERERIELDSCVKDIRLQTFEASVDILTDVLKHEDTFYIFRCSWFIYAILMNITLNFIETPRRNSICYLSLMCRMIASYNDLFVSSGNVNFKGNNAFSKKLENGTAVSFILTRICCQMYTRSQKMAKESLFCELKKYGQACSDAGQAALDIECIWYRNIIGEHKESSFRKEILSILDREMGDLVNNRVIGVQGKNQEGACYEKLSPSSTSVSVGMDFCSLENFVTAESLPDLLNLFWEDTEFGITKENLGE
# Experiment: PBM E-score (8-mer binding enrichment) (E-score (-0.5 to 0.5)); higher = stronger / more preferred TF binding
# Details: protein concentration: 100 nM; construct: GST-full length
# Outline: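 Universal all-10-mer Agilent arrays, fresh or stripped once, were converted to double-stranded form by primer extension. GST-tagged yeast transcription factors from PURExpress in vitro transcription/translation, full-length or DNA-binding domain only, were applied at about 100-200 nM and detected with fluorescent anti-GST. After masliner normalisation, the Universal PBM Analysis Suite scored each ungapped eight-base word together with its reverse complement by E-score.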
row,Sequence,PBM E-score
1,AACATGCC,0.0234
2,CCGCTACA,-0.0684
3,ATTACCAA,0.0909
4,GCAAGTCC,-0.11
5,CTCGGGCA,0.17
6,AGACCATA,0.122
7,CTTAGTGA,-0.078
8,ATGACTCC,-0.0942
9,CGAGCCGA,0.299
10,AAGGGCCG,0.0222
11,GGTACCCA,-0.187
12,ATCAAAAT,0.0991
13,GGTAGGAA,-0.0256
14,AACGTTCA,-0.282
15,AGGGCATC,-0.296
16,CATGCGTA,-0.0609
17,CCAAGAAA,0.136
18,TGCACGCA,-0.151
19,AATACTAA,0.157
20,ATCTGATC,0.134
21,ACGGACTA,0.0981
22,GGTGAATA,0.0495

# Quoted from the listing.
# Under PBM E-score, TGCACGCA has -0.151
# Under PBM E-score, AAGGGCCG has 0.0222
# Under PBM E-score, ATCAAAAT has 0.0991
# Under PBM E-score, ACGGACTA has 0.0981
# Under PBM E-score, AGGGCATC has -0.296
# Under PBM E-score, GGTGAATA has 0.0495

# Additional results follow.

row,Sequence,PBM E-score
1,AAACAGAC,0.0301
2,CCGTCGCC,0.0461
3,CGCTTAAG,-0.133
4,TAACCGAA,0.254
5,GTGACCTA,-0.0502
6,AAATCCGA,0.214
7,CGTGGTAG,-0.0241
8,CGCTGATC,0.0987
9,CCTTGTAC,-0.0976
10,CCCCATAC,-0.196
11,AGTTTTGG,0.043
12,AGCTCAGG,-0.0444
13,GGAACCAC,0.0749
14,CATCCAGG,-0.24
15,ATATACTC,-0.0639
16,CACTATAA,-0.0525
17,AAGCCGGC,0.374
18,AGCGTATA,-0.0154
19,GCGGTCTA,0.03
20,CCAAGGTC,-0.16
21,AGCAATTG,0.0989
22,ACGCAGCT,-0.0846

row,Sequence,PBM E-score
1,ACCATAGC,-0.052
2,ACACGTTA,-0.274
3,AAAAATTC,0.0768
4,AAAAGCAC,-0.0881
5,CACGTGCG,-0.085
6,CACCTCCA,-0.0907
7,TAACAACA,0.114
8,CTTGTTGC,0.0746
9,ATTAGCCG,0.272
10,CACGTAAG,-0.165
11,CCGCTGTC,-0.0701
12,AAGCCTGC,-0.114
13,ATTGACAA,-0.0306
14,CCAGCAAA,0.0844
15,TATACCGA,0.28
16,AAATTTGC,0.176
17,AAATACTA,0.0492
18,ACCTAGCG,-0.0417
19,ATAGCTGG,-0.106
20,AGGGGCGG,-0.132
21,CAATAGGG,-0.17
22,CGAGTCCC,0.0175

row,Sequence,PBM E-score
1,ACATTGTC,0.196
2,AAACCCAC,0.0014
3,ATAATCAG,0.0974
4,CATGGGTA,-0.155
5,CGTATGAC,0.0296
6,GTCTGGTA,-0.154
7,GATGAAGC,0.0006
8,TCTACCCA,-0.132
9,GGCTCGAA,0.0128
10,GAGGACCC,-0.148
11,ATACCAGG,-0.122
12,AGATTAAC,0.00456
13,CCACGGGC,-0.094
14,ACGCAGAA,0.0373
15,ACAATTGA,0.00728
16,GTTTAAGA,-0.00403
17,ACCGCAGC,-0.172
18,AGTTTGAA,0.0928
19,CTCTCAGC,-0.287
20,CCCGCTCG,-0.173
